Source: PMC2259325

By UniProt entry, the sequences of proteins in these tests, tags left out. Where a name states a change or a piece, a line headed by the entry shows the natural chain unless it says otherwise. Chains listed by the source or under a name are the forms on record and can include a tag or linker. Residues count along the entry.
GST-Fyn SH3 domain fusion protein (P06241, residues 82-143): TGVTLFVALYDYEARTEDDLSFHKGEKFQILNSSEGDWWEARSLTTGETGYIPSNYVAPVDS
GST-Fyn SH3 domain A95S (P06241, form named): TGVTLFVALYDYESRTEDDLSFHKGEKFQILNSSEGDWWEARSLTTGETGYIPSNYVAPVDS
GST-Fyn SH3 domain D100A (P06241, form named): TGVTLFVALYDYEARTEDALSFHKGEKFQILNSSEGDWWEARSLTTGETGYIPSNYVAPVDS
GST-Fyn SH3 domain D99A (P06241, form named): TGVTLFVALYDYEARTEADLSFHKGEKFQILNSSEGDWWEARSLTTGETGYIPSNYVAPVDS
GST-Fyn SH3 domain E121L (P06241, form named): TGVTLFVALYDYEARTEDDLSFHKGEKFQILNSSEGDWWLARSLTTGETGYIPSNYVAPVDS
GST-Fyn SH3 domain E129Q (P06241, form named): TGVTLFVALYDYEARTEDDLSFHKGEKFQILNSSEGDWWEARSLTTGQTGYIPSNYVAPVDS
GST-Fyn SH3 domain L112V (P06241, form named): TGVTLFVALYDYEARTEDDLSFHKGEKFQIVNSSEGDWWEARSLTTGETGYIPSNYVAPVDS
GST-Fyn SH3 domain N136A/Y137A (P06241, form named): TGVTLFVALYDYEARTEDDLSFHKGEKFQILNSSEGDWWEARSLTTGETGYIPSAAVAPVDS
GST-Fyn SH3 domain W119A (P06241, form named): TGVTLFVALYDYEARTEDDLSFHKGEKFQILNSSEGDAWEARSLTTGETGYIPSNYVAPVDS
GST-Fyn SH3 domain Y91A/Y93A (P06241, form named): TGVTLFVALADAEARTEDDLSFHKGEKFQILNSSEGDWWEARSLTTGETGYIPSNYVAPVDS

Experiments:
[1] = target: GST-Fyn SH3 domain A95S (UniProt P06241); experiment: ELISA; 1 μg/well GST-SH3 fusion coated on microplates; 0.5 μg/well purified NS5A in PBS-T, 2 h, 4°C; detection with sheep anti-NS5A serum; normalised to GST loading ELISA; both purified
[2] = target: GST-Fyn SH3 domain D100A (UniProt P06241); experiment: as above
[3] = target: GST-Fyn SH3 domain D99A (UniProt P06241); experiment: as above
[4] = target: GST-Fyn SH3 domain E121L (UniProt P06241); experiment: as above
[5] = target: GST-Fyn SH3 domain E129Q (UniProt P06241); experiment: as above
[6] = target: GST-Fyn SH3 domain L112V (UniProt P06241); experiment: as above
[7] = target: GST-Fyn SH3 domain N136A/Y137A (UniProt P06241); experiment: as above
[8] = target: GST-Fyn SH3 domain W119A (UniProt P06241); experiment: as above
[9] = target: GST-Fyn SH3 domain Y91A/Y93A (UniProt P06241); experiment: as above
[10] = target: GST-Fyn SH3 domain fusion protein (wild type) (UniProt P06241); experiment: as above
[11] = target: GST-Fyn SH3 domain D100A (UniProt P06241); experiment: pull-down; GST-SH3 domain fusion proteins on glutathione agarose beads; 5 μg purified NS5A, 4°C, 3 h; washes in GLB with 0.5 M KCl and GLB; elution with 20 mM reduced glutathione; western blot for NS5A; both purified
[12] = target: GST-Fyn SH3 domain D99A (UniProt P06241); experiment: as above
[13] = target: GST-Fyn SH3 domain N136A/Y137A (UniProt P06241); experiment: as above
[14] = target: GST-Fyn SH3 domain W119A (UniProt P06241); experiment: as above
[15] = target: GST-Fyn SH3 domain Y91A/Y93A (UniProt P06241); experiment: as above
[16] = target: GST-Fyn SH3 domain fusion protein (wild type) (UniProt P06241); experiment: as above

Substance: NS5A(Δ32), N-terminally truncated hepatitis C virus non-structural 5A protein (from UniProt O92972) (domain or fragment)
- binding [1]: binds
- binding [2]: binds
- binding [3]: binds
- binding [4]: binds
- binding [5]: binds
- binding [6]: binds
- binding [7]: no binding (tested: 0.5 μg/well of purified NS5A in 50 μl)
- binding [8]: no binding (tested: 0.5 μg/well of purified NS5A in 50 μl)
- binding [9]: no binding (tested: 0.5 μg/well of purified NS5A in 50 μl)
- binding [10]: binds
- binding [11]: binds
- binding [12]: binds
- binding [13]: no binding (tested: 5 μg of purified NS5A)
- binding [14]: no binding (tested: 5 μg of purified NS5A)
- binding [15]: no binding (tested: 5 μg of purified NS5A)
- binding [16]: binds

No constants are given. Whether binding was seen depends on the method and setting. For some of these results: A result given as binding can be weak or reduced; the word gives no strength.
